Literature values, collected in US7906551B2 (Rottapharm S.p.A., priority 2006, dated 2011).
At least one compound was matched to its structure with a doubt left.

Target: T1, 3-phosphoinositide-dependent protein kinase-1 (PDK-1) (Homo sapiens, UniProt O15530)
T1 sequence (O15530 1-556): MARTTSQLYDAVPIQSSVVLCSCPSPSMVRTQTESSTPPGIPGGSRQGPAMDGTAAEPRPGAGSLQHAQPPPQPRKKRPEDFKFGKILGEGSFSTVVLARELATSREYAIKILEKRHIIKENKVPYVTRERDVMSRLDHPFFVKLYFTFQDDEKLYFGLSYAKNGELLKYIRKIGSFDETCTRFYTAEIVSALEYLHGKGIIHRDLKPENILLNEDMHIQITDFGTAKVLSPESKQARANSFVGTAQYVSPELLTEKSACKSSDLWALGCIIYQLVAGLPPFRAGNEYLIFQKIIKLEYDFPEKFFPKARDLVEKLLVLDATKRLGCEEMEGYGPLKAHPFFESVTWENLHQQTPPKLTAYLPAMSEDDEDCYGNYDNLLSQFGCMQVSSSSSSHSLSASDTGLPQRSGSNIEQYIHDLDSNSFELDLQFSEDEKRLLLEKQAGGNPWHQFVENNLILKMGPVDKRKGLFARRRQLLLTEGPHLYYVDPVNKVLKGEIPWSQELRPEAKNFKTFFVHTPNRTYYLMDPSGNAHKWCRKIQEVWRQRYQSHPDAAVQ
Details: by blocking PDK-1; cited from earlier work

Question: For `Cc1ccc(-c2cc(C(F)(F)F)nn2-c2ccc(S(N)(=O)=O)cc2)cc1` [Celecoxib], which “apoptosis by a COX-2 independent mechanism” value is on record?
Answer: induces apoptosis
